Source: the supplement of paper PMC4604168 (melanoma cell lines)
The other results are listed elsewhere or left out. Many values rest on one well or one pass, so single values are uncertain.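 Cells were imaged in 1,536-well plates, and nuclei stained with an antibody against cleaved PARP were counted against all DNA-stained nuclei to give the apoptosis fraction. Screening doses were chosen to leave most cells alive, and resting and induced cleaved-PARP levels differ strongly between cell lines.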

Key:
Experiment in all cases: cleaved PARP positive nuclei fraction relative to DMSO control; melanoma cells; higher = more apoptosis
Conditions in all cases: library dose: low library concentration; 72 h
CBRC034 = system: CBRC034 (line from a melanoma biopsy)
COLO792 = system: COLO792
COLO800 = system: COLO800
COLO829 = system: COLO829
G361 = system: G361
IPC-298 = system: IPC-298
IST-MEL1 = system: IST-MEL1
LB2518-MEL = system: LB2518-MEL
LOXIMVI = system: LOXIMVI
MEL-HO = system: MEL-HO
MZ2-MEL = system: MZ2-MEL
MeWo = system: MeWo
RPMI7951 = system: RPMI7951
RVH-421 = system: RVH-421
SkMel28 = system: SkMel28
SkMel2 = system: SkMel2
SkMel30 = system: SkMel30
UACC62 = system: UACC62

SMILES	cleaved PARP positive nuclei fraction (CBRC034)	cleaved PARP positive nuclei fraction (COLO792)	cleaved PARP positive nuclei fraction (COLO800)	cleaved PARP positive nuclei fraction (COLO829)	cleaved PARP positive nuclei fraction (G361)	cleaved PARP positive nuclei fraction (IPC-298)	cleaved PARP positive nuclei fraction (IST-MEL1)	cleaved PARP positive nuclei fraction (LB2518-MEL)	cleaved PARP positive nuclei fraction (LOXIMVI)	cleaved PARP positive nuclei fraction (MEL-HO)	cleaved PARP positive nuclei fraction (MZ2-MEL)	cleaved PARP positive nuclei fraction (MeWo)	cleaved PARP positive nuclei fraction (RPMI7951)	cleaved PARP positive nuclei fraction (RVH-421)	cleaved PARP positive nuclei fraction (SkMel28)	cleaved PARP positive nuclei fraction (SkMel2)	cleaved PARP positive nuclei fraction (SkMel30)	cleaved PARP positive nuclei fraction (UACC62)
COc1cc([C@@H]2c3cc4c(cc3[C@@H](O[C@@H]3O[C@@H]5CO[C@@H](C)O[C@H]5[C@H](O)[C@H]3O)[C@H]3COC(=O)[C@H]23)OCO4)cc(OC)c1O [etoposide] + CNC(=O)c1cc(Oc2ccc(NC(=O)Nc3ccc(Cl)c(C(F)(F)F)c3)cc2)ccn1 [sorafenib] (first compound 0.02 µM, partner dose 0.4 µM)	59.7%	76%	109%	61.4%	57%	86.9%	122%	109%	132%	53.5%	81.1%	86.5%	103%	147%	41%	81.4%	112%	57.5%
Cc1cn(-c2cc(NC(=O)c3ccc(C)c(Nc4nccc(-c5cccnc5)n4)c3)cc(C(F)(F)F)c2)cn1 [nilotinib] + CC(C)C[C@H](NC(=O)[C@H](Cc1ccccc1)NC(=O)c1cnccn1)B(O)O [Bortezomib] (first compound 0.2 µM, partner dose 0.001 µM)	121%	85%	179%	207%	212%	200%	129%	92.9%	124%	63.8%	159%	69.9%	190%	130%	71%	56.7%	65.1%	50.4%
Cc1ccc(Nc2nccc(N(C)c3ccc4c(C)n(C)nc4c3)n2)cc1S(N)(=O)=O [Pazopanib] + C[C@@H](Oc1cc(-c2cnn(C3CCNCC3)c2)cnc1N)c1c(Cl)ccc(F)c1Cl [Crizotinib] (first compound 0.4 µM, partner dose 0.2 µM)	78.8%	126%	108%	152%	221%	149%	66.1%	90.7%	95.8%	121%	34.8%	431%	112%	122%	85.5%	118%	78.6%	115%
O=C(Nc1cc(C(F)(F)F)cc(C(F)(F)F)c1)c1cc(Cl)ccc1O + Cn1cnc2c(F)c(Nc3ccc(Br)cc3Cl)c(C(=O)NOCCO)cc21 [selumetinib] (first compound 0.016 µM, partner dose 0.015 µM)	93.7%	352%	78.7%	46.9%	132%	201%	65.3%	136%	51.9%	67.4%	107%	185%	96.3%	171%	148%	109%	127%	129%
O=C(Nc1cc(C(F)(F)F)cc(C(F)(F)F)c1)c1cc(Cl)ccc1O + Nc1cccc2c1CN(C1CCC(=O)NC1=O)C2=O [lenalidomide] (first compound 0.016 µM, partner dose 1 µM)	96.1%	80%	71.1%	87%	62.1%	132%	64.2%	119%	77.6%	54.6%	50.8%	113%	33.3%	86.5%	218%	46.6%	84.4%	98.4%
Cc1cc(Nc2cc(N3CCN(C)CC3)nc(Sc3ccc(NC(=O)C4CC4)cc3)n2)n[nH]1 [Tozasertib] + NC1(c2ccc(-c3nc4ccn5c(=O)[nH]nc5c4cc3-c3ccccc3)cc2)CCC1 [MK2206] (first compound 0.006 µM, partner dose 0.4 µM)	83%	141%	149%	110%	110%	122%	45.2%	126%	135%	237%	82.1%	155%	244%	155%	82.8%	15%	106%	56.6%
